## Screening data, single-dose tests

Protein sequences, listed by entry. Tags and fused reporters are not part of them. Residues count along the entry.
UniProt Q8IDJ8, 1-583: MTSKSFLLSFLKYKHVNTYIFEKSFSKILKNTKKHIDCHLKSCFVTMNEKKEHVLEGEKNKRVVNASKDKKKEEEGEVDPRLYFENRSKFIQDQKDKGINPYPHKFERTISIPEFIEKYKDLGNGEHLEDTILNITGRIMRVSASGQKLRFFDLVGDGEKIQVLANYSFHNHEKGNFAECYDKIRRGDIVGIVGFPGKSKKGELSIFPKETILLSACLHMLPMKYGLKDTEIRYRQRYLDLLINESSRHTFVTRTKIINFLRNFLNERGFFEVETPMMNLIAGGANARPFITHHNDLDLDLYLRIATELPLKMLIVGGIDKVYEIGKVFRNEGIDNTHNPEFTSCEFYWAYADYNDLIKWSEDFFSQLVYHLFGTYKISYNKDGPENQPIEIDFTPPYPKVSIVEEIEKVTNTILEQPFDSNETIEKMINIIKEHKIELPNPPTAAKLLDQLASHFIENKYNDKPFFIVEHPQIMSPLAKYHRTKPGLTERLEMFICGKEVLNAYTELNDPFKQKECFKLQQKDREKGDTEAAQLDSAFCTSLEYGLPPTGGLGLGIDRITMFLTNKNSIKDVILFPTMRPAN
UniProt I6X8D2, whole entry: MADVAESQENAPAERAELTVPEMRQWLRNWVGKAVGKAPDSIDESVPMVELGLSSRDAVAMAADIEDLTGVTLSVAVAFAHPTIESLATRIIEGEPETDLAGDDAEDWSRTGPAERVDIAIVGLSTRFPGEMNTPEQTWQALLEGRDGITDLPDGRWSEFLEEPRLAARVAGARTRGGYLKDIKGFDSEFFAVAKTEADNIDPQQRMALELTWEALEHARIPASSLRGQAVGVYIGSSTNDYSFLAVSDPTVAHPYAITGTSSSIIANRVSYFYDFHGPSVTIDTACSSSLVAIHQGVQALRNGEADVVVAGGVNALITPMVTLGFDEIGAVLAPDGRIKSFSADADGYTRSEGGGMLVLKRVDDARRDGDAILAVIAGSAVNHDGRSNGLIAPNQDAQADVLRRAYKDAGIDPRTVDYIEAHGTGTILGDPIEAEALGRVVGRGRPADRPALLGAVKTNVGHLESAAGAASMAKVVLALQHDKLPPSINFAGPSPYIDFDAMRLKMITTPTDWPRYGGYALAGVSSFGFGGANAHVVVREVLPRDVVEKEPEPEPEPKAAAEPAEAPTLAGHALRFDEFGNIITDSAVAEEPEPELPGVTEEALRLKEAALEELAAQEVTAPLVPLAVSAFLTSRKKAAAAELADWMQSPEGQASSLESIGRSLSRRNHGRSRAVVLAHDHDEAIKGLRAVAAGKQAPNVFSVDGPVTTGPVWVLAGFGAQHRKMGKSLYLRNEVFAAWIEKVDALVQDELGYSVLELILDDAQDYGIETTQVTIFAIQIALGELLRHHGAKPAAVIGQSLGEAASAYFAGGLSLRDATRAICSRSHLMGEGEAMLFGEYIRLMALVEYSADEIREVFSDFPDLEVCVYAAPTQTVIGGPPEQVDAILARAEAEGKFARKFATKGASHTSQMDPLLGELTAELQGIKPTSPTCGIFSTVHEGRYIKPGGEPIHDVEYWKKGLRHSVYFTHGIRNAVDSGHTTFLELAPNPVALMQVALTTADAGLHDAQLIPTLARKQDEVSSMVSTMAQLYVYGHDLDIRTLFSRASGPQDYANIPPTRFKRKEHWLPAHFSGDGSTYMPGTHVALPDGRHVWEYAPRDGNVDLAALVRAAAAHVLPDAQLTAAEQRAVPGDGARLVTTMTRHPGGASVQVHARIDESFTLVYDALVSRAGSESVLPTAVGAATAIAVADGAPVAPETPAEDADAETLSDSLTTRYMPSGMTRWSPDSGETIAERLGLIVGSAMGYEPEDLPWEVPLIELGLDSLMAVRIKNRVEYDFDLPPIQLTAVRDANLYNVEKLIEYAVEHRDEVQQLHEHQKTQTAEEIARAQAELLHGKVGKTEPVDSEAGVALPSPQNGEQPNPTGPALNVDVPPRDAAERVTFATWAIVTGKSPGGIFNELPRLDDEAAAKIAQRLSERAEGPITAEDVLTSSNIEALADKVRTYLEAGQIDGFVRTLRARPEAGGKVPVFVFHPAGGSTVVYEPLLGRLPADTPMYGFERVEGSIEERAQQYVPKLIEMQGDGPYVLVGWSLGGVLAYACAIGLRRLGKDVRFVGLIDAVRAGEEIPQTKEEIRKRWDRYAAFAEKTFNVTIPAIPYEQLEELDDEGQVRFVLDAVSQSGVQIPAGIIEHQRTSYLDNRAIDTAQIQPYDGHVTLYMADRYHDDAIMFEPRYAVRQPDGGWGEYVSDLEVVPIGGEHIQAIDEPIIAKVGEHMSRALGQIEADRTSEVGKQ
UniProt P9WNZ1, whole entry: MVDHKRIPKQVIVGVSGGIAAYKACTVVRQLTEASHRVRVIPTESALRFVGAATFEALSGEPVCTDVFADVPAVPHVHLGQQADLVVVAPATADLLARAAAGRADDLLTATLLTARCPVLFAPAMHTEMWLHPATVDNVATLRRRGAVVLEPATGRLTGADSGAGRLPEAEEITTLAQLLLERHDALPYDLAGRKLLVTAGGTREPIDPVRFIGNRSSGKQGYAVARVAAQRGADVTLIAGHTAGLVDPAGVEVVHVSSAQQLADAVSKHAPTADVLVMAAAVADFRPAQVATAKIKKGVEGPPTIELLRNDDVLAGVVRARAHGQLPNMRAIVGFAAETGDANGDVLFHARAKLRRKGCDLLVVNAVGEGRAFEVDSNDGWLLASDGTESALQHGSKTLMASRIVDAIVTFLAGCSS
UniProt Q4DA54, 1-478: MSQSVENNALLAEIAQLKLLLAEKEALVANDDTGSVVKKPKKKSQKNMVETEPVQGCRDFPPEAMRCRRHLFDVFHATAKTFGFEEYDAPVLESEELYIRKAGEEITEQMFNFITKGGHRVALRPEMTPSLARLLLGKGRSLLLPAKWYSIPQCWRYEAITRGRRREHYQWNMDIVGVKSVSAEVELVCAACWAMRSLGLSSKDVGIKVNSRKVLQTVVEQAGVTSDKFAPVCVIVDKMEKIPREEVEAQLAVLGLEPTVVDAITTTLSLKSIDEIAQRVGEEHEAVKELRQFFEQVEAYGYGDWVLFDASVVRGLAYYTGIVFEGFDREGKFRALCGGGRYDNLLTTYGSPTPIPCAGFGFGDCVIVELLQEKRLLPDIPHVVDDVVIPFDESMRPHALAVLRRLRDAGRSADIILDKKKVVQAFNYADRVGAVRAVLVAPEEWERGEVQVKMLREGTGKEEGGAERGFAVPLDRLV
UniProt P9WFT3, whole entry: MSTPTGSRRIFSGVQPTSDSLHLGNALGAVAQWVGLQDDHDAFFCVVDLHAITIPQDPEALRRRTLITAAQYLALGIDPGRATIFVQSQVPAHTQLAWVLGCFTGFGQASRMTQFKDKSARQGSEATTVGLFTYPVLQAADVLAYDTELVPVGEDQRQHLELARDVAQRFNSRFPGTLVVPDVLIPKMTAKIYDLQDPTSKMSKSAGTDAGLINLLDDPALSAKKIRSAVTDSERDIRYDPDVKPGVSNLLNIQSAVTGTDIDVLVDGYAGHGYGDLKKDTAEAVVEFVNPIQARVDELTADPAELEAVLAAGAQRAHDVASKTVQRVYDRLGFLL
UniProt P9WPC5, whole entry: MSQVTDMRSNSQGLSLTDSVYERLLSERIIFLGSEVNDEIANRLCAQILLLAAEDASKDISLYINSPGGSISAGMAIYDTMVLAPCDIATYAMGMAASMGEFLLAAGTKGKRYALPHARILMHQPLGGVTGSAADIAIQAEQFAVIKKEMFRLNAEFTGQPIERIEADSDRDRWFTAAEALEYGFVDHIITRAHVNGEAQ
UniProt P9WPC3, whole entry partner: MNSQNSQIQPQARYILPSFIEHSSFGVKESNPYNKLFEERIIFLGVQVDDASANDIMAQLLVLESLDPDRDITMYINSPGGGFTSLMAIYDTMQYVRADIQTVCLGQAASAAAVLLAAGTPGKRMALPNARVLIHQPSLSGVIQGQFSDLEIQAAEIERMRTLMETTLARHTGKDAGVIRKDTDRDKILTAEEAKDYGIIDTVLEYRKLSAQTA

PfKRS1: 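Enzyme assay of the cytosolic lysyl-tRNA synthetase in 384-well plates, read by luminescence. Target: Lysine-tRNA ligase, Plasmodium falciparum 3D7 (UniProt Q8IDJ8). Tested at 30 µM. Direction is inferred from only a few compounds that gave an IC50; most scored high, so higher reads as stronger inhibition. About 69,000 compounds were tested under these conditions; 0.071% (about 49) showed 50% or more at least once.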
Pks13 thioesterase: 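Polyketide synthase Pks13, Mycobacterium tuberculosis (UniProt I6X8D2). Enzyme assay of the thioesterase domain of polyketide synthase 13; the read-out is not stated. Compounds at 30 µM. Higher reads as stronger inhibition (inferred from which compounds were picked for retests). About 67,000 compounds were tested under these conditions; 0.46% (about 300) showed 50% or more at least once.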
CoaBC: 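Enzyme assay of CoaBC with a phosphate dye (Biomol Green) read at 650 nm. Target: Coenzyme A biosynthesis protein CoaBC, Mycobacterium tuberculosis (UniProt P9WNZ1). Concentration: 30 µM. Higher reads as stronger inhibition, judged from the few compounds that gave an IC50. Most strong results did not repeat in a second test. About 67,000 compounds were tested under these conditions; 0.06% (about 40) showed 50% or more at least once.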
TcHisRS: 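Histidine-tRNA ligase, Trypanosoma cruzi CL Brener (UniProt Q4DA54). Enzyme assay of histidyl-tRNA synthetase; the read-out is not stated. Concentration: 30 µM. The record gives no direction; compounds that gave an IC50 in retests scored well above the rest, so higher reads as stronger inhibition. Size under these conditions: about 69,000 compounds, about 31 of them at 50% or above in at least one test.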
MtTrpRS: 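Tryptophan-tRNA ligase, Mycobacterium tuberculosis (UniProt P9WFT3). Enzyme assay of tryptophanyl-tRNA synthetase; the read-out is not stated. Concentration: 10 µM. Higher most likely means stronger inhibition; the record gives no direction and few retests gave an IC50. About 65,000 compounds were tested under these conditions; 0.098% (about 64) showed 50% or more at least once.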
ClpP1P2: 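Protease assay of ClpP1P2, read by the AMC dye that it sets free. Target: ClpP1P2, Mycobacterium tuberculosis (UniProt P9WPC5 and UniProt P9WPC3). Concentration: 50 µM. Higher reads as stronger inhibition, judged from the few compounds that gave an IC50. Most other retested compounds had strongly negative values. Size under these conditions: about 69,000 compounds, about 10 of them at 50% or above in at least one test.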

Values are the deposited “Percent Effect”, in %. The record does not define 0% and 100%; most values in the screen are far below 50% and negative numbers occur (in some assays of this library far below -100). Compounds were drawn at random from those tested, without regard to their results. A dash means the value is not listed here; it may have been measured.

SMILES,PfKRS1,Pks13 thioesterase,CoaBC,TcHisRS,MtTrpRS,ClpP1P2
Cc1cc(Cn2cc(C(C)Cc3ccc4c(c3)OCO4)nn2)n[nH]1 (centres unmarked),2.385%,-19.22%,-,2.632%,4.128%,0.3126%
CNc1ncccc1C(=O)N1CCCC2(C1)C(=O)N(C)c1ccccc12 (centres unmarked),3.424%,-14.25%,1.574%,6.931%,-0.7776%,-8.409%
CCc1ccc(CNC(=O)N2CCN(Cc3cc(C)no3)CC2)s1,-0.8618%,-9.096%,4.508%,0.7576%,-0.8772%,5.276%
CCOCCCC(=O)Nc1cc(C(N)=O)ccc1N1CCCCC1,6.222%,-19.96%,8%,8.046%,1.163%,7.053%
Cc1ccc(-c2n[nH]cc2CNCCn2cccn2)o1,-2.487%,-12.28%,0.1148%,2.632%,7.168%,-1.798%
COCC(=O)N1CC[C@H]2C[C@H](c3nnc(C4CC4)o3)O[C@@H]2C1,0.2359%,-6.338%,-2.096%,0.9524%,-8.954%,-13.2%
CCC(=O)Nc1nnc(CCOc2ccc(OC)cc2)s1,6.08%,-11.2%,-13.16%,6.087%,0.2591%,-1.107%
O=C(COCCOc1ccccc1)N1CCCC(n2ccnc2)C1 (centres unmarked),-1.42%,-22.9%,0.5362%,3.134%,-6.417%,-4.887%
O=C(COC[C@H]1CC[C@H]2[C@H](CCN2c2ncccn2)O1)N1CCCC1,5.797%,-9.391%,-2.366%,9.917%,2.385%,0.2569%
COc1ccc(C(=O)NCCCNc2ccc(C(F)(F)F)cn2)cc1,0.934%,29.5%,5.371%,6.471%,-2.392%,-27.26%
COC(=O)CCNC(=O)c1ccc(NC(=O)N(C)CC(C)(C)C)cc1,-0.01191%,-25.1%,7.592%,4.255%,-3.186%,5.838%
CC(=O)N1CCC(CSCc2ccco2)CC1,-1.855%,14.06%,-10.92%,11.11%,13.55%,4.061%
CC(C)COCCCNC(=O)c1cccnc1N1CCOCC1,1.005%,-4.724%,3.299%,5.83%,-0.7101%,-23.52%
CC(C)(C)NC(=O)c1ccc(COCC(F)(F)F)o1,2.85%,-,-1.09%,7.921%,-3.888%,4.767%
COC(=O)C(C)NCc1ccc2[nH]c(C)c(C)c2c1 (centres unmarked),-4.585%,5.23%,-2.696%,-2.381%,1.358%,-12.14%
CC(NC1(CNC(=O)CC(C)(C)C)CCOCC1)c1ccccc1 (centres unmarked),1.789%,-28.77%,3.524%,0.8475%,0.6706%,-10.07%
O=C(CN1C(=O)c2ccccc2CS1(=O)=O)c1ccc(Cl)cc1,3.497%,31.71%,-9.295%,-7.882%,11.73%,-1.428%
O=C(Cc1ccc2c(c1)OCO2)N1CCN(c2cnccn2)CC1,5.906%,17.31%,6.383%,-2.662%,-4.717%,11.87%
Cc1cc2c(=O)n(CCOCCO)cnc2s1,2.013%,3.736%,-,6.579%,1.238%,-6.064%
Cn1c(=O)n(C)c2cc(NS(=O)(=O)Cc3ccccc3)ccc21,11.55%,-7.127%,-1.823%,4.95%,3.698%,6.078%
CN(C)CCNC(=O)c1cc(-c2cnc(N3CCCC3)nc2)cn1C,-9.378%,-11.82%,7.513%,6.011%,-1.41%,-28.16%
O=C(c1ccco1)N1C[C@@H]2[C@@H](C1)OCC(=O)N2Cc1cccnc1,-5.336%,-,-12%,2.151%,6.614%,12.28%
Cc1ccc(CN2CCOCC2)cc1NC(=O)c1ccsc1,6.643%,-17.52%,0.9662%,8.387%,-8.545%,6.361%
CN1CCN([C@@H]2CCN(CC3=Cc4cc(Cl)ccc4OC3)C[C@H]2O)CC1,1.7%,-32.6%,-2.439%,0%,-1.358%,-3.93%
Cc1cnn(CCNCC(=O)NCc2ccccc2)c1,0.9814%,-23.41%,5.175%,-2.273%,2.632%,-8.861%
CCn1nc(C)c(NC(=O)c2cc(NC(=O)C3CC3)n(C)n2)c1C,4.286%,-,5.703%,6.878%,-5.253%,2.332%
COc1ccc(Cl)cc1CS(=O)(=O)Cc1nc(C)no1,-1.855%,-7.771%,14.06%,-5.319%,10.83%,8.739%
CC(C)Oc1ncccc1CNC(=O)N1CCC1c1ccccc1 (centres unmarked),2.801%,-24.18%,0.266%,-1.141%,2.044%,6.837%
Cc1cnccc1CN1CC[C@H](Oc2cccc(F)c2)[C@@](C)(O)C1,3.587%,-,-0.4854%,14.29%,-,-10.72%
COc1ccccc1-c1ncc(CN2CCCC(CCC(N)=O)C2)s1 (centres unmarked),5.278%,-24.3%,3.23%,-6.667%,-0.8258%,9.013%
CC(C)OCCOCc1cccc(NC(=O)NCc2ccccn2)c1,4.005%,14.92%,9.091%,0%,-0.2486%,-1.187%

3 of the entries, repeated:

SMILES,PfKRS1,Pks13 thioesterase,CoaBC,TcHisRS,MtTrpRS,ClpP1P2
COc1ccccc1-c1ncc(CN2CCCC(CCC(N)=O)C2)s1 (centres unmarked),5.278%,-24.3%,3.23%,-6.667%,-0.8258%,9.013%
Cc1ccc(CN2CCOCC2)cc1NC(=O)c1ccsc1,6.643%,-17.52%,0.9662%,8.387%,-8.545%,6.361%
CC(C)OCCOCc1cccc(NC(=O)NCc2ccccn2)c1,4.005%,14.92%,9.091%,0%,-0.2486%,-1.187%

Measurements from “University of Dundee, Small-Polar-MMV Screening Library” (2021), ChEMBL document CHEMBL3988442.